In PubChem BioAssay AID2599 (Sanford-Burnham Center for Chemical Genomics, 2010) one finds inhibition data, which are given here for 1 compound.

The chains behind the UniProt entries cited, without tags or fusion partners. Where a name states a change or a piece, a line headed by the entry shows the natural chain unless it says otherwise.
UniProt Q9GZR1: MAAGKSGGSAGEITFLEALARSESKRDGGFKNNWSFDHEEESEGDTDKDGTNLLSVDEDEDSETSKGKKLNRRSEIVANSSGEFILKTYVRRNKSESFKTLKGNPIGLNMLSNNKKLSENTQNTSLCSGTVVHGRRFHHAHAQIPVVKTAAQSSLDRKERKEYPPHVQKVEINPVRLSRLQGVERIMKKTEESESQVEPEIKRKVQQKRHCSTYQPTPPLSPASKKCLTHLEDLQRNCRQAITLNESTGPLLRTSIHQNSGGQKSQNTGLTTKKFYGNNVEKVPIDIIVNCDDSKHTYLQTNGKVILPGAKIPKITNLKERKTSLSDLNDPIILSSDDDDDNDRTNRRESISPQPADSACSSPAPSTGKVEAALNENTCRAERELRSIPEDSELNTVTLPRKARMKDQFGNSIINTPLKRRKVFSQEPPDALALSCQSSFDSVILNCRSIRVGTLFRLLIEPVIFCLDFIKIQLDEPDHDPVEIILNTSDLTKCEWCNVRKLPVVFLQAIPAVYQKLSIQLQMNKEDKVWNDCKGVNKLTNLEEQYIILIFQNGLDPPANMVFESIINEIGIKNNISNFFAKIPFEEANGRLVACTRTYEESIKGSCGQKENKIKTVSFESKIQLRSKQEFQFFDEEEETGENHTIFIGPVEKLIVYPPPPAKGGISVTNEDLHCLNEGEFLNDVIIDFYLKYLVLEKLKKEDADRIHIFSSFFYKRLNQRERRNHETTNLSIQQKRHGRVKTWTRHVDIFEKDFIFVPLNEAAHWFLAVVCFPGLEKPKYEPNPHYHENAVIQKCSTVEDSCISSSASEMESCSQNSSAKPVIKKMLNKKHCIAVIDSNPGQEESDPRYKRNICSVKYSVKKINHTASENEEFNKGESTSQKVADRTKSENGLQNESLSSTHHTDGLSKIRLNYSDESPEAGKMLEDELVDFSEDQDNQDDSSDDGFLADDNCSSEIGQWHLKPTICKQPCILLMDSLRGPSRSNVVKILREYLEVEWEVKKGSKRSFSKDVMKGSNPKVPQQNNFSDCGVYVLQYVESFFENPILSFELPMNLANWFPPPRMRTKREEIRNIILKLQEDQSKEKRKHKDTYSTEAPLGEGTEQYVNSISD

Molecules are shown by their SMILES. This is a selection; strong and weak results do not stand in their true shares. Calls of active or inactive are those of the source.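 The calls were made as follows: active = inhibition above about 50% at the single tested dose (limit read from the data); inactive = the rest.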

The target of the test is Sentrin-specific protease 6 (Homo sapiens) (UniProt Q9GZR1). As to the kind of experiment: SENP6 protease inhibitors, primary screen, biochemical, luminescence, uHTS (AID 2599).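 Also: plate controls were DMSO wells with enzyme for no effect and DMSO wells lacking enzyme for full effect.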 To be noted: Recombinant SENP6 catalytic domain, aminoluciferin luminescence; at 10 µM; stronger effect = higher value.
Regarding `Cc1cc(=O)oc2cc(OCc3ccccc3)ccc12`, the inhibition is active: 56.5%.

The inhibition is the drop in the measured response relative to a control, in per cent.
